According to patent US20210179724A1:
These are yes or no findings as the source states them, for the method shown. Some results given as binding are weak or reduced against the parent protein; the word gives no strength.

Target: adenosine A2A receptor (Homo sapiens (Human)) (UniProt P29274)
Assay: flow cytometry, 100 nM IgG, HEK293-A2a cells against parent cells

B1: A2A - 2 (antibody, V domains shown)
VH: EVQLLESGAEVKKPGASVKVSCKASGYTFTGYYMHWVRQAPGQGLEWMGWINPNSGGTNYAQKFQGRVTMTRDTSISTAYMELSSLRSEDTAVYYCARGGPFDYWGQGTMVTVSS
VL: ELTLTQSPAFMSATPGDKVNISCKASQDIDDDMNWYQQKPGEAAIFIIQEATTLVPGIPPRFSGSGYGTDFTLTINNIESEDAAYYFCLQHDNFPMYTFGQGTKLEIK
In the case of B1, the binding is reported as “binds”.
